Primary screen of a compound library

From ChEMBL document CHEMBL3988442, “University of Dundee, Small-Polar-MMV Screening Library” (2021).

Each number is a percent effect as filed. How 0% and 100% were set is not recorded. Most values in the screen are low, and negative values occur. Compounds were drawn at random from those tested, without regard to their results. Two or more numbers in one place are separate tests of the same structure; such repeats can differ widely.

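Growth of Mycobacterium tuberculosis over 4 days (cholesterol / DPPC medium with tyloxapol); the read-out is not stated. Compounds at 50 µM. The record gives no direction; compounds that gave an IC50 in retests scored well above the rest, so higher reads as more growth inhibition. Of about 69,000 compounds tested this way, about 370 (0.54%) reached 50% or more in at least one test.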

- Cc1ccc(Cl)cc1N1CCN(CC(=O)NCc2ccco2)CC1 : 14.89%
- O=C(O)COc1ccc(Cl)cc1CN1CCC2(CCNCC2)CC1 : 18.91%
- Cc1ccc(Br)cc1C(=O)Nc1cc(C(N)=O)n(C)c1 : 5.637%
- CN(C)CC1CN(Cc2nnc(C(C)(C)C)o2)CCO1 (centres unmarked) : -41.77%
- O=C1CCC(C(=O)N2CCOC(Cc3cccc4ccccc34)C2)=NN1 (centres unmarked) : 17.41%
- COc1ccc(OCCNCCn2cccn2)cc1 : 8.716%
- CCS(=O)(=O)N1CCC2(CCCN(Cc3cc(OC)ccc3F)C2)C1 (centres unmarked) : -36.99%
- CNC(=O)C1Cn2ccnc2C2(CCN(Cc3cccc(C)n3)CC2)O1.O=C(O)C(F)(F)F (centres unmarked) : 3.508%
- CN(C)c1ncc(-c2ccc(C(N)=O)cc2)c(C2CCNC2)n1.Cl (centres unmarked) : 10.68% & 5.352%
- CC(O)(CCc1ccccc1)CNC(=O)c1ccsc1 (centres unmarked) : 9.034%
- O=C(NCc1ccnc(C2CCCOC2)n1)c1cccs1 (centres unmarked) : -8.965% & -0.3766%
- CC(C)c1noc(CN(Cc2cccnc2)C2CN3CCC2CC3)n1 (centres unmarked) : -33.42%
- COc1c(CNCc2cccc(Cn3ccnc3C)c2)c(C)nn1C.Cl : 6.611%
- Cc1nc(CNc2nc(-c3ccco3)nc3c2CCNCC3)n[nH]1 : 9.497%
- O=C(NCC1CCOC1)c1cc(-c2ccc(Cl)cc2)n[nH]1 (centres unmarked) : -11.08%
- CC(C)Oc1ccccc1CNC(=O)N(C)CC(F)F : -9.735%
- CC(C(=O)NCC(F)(F)F)N1CCC(N2CCN(C)C2=O)CC1 (centres unmarked) : 11.57%
- COc1ccccc1CNC1(CCO)CCOCC1 : -26.26%
- CCCN(C(=O)c1ocnc1C)C1CCCN(Cc2ccccc2)C1 (centres unmarked) : 8.681%
- CCS(=O)(=O)Nc1ccc2[nH]c(C3CCC3)nc2c1 : 8.991%
- COCCOc1ncccc1NCc1nc2ccccc2n1C : 2.448%
- Cc1nc(C2CCCN(C(=O)COCc3ccccc3Cl)C2)no1 (centres unmarked) : 1.573%
- [H][C@@]12CN(Cc3ccsc3)C[C@]1([H])N(Cc1ccccn1)C(=O)O2 : -15.97%
- Cc1cc(C(C)NC(=O)c2c[nH]c(=O)c(Cl)c2)c(C)o1 (centres unmarked) : 19.2%
- O=C1CCOC[C@]2(CN(Cc3ccccc3)C[C@H]2c2ccccc2)N1 : -28.68% & 1.66%
- c1ccc(-c2cc(CC3(NCc4ncc[nH]4)COC3)no2)cc1 : -12.79%
- CC(C)OCc1ncn2c1CN(Cc1cnn(C)c1)CCC2.O=C(O)C(F)(F)F : 11.43%
- O=C1CC(c2ccc3c(c2)OCO3)c2cn[nH]c2N1 (centres unmarked) : -5.189%
- CCN(Cc1ccncc1)C(=O)c1cn(CCC2CCCCC2)nn1 : 14.21%
- CC(C)Cc1nc(CS(C)(=O)=O)n(-c2ccccn2)n1 : 1.342%
- CC(=O)NC1CCN(C(=O)Nc2cccc(SC(F)F)c2)CC1 : -1.364%
- Cc1csc(CCNC(=O)N2CCC(n3cccc3)CC2)n1 : 12.23%
- [H][C@]12CC[C@]([H])(CN(Cc3cscn3)C1)N(C(=O)c1nc(C)c[nH]1)C2 : -6.495%
- CCCc1n[nH]c(C2CN(CCNC3CCCCC3)CCO2)n1 (centres unmarked) : -10.62%
- O=C1NC2(CCc3ccccc31)CCN(C(=O)c1ccncc1)C2 (centres unmarked) : 5.757% & -1.823%
- COc1ccccc1C(NC(=O)CN(C)C(C)C)c1noc(C)n1 (centres unmarked) : 9.882%
- CN(CC(=O)N(CCC#N)c1ccccc1)C1CCc2ccccc21 (centres unmarked) : -0.5916%
- CCc1nc(CN2CCCC(NCc3ncc(C(C)(C)C)o3)C2)no1 (centres unmarked) : -7.872%
- CCOCCC(=O)NC1(c2cccc(Br)c2)CC1 : 14.19%
- O=C(NCc1cccs1)c1nc2c(o1)CN(c1ncccn1)C2 : -12.37%
- NC(=O)CCCNC(=O)COc1ccccc1C(F)(F)F : 3.566% & -49.53%

Repeated from the top, 5 entries:

SMILES,Percent Effect
Cc1ccc(Cl)cc1N1CCN(CC(=O)NCc2ccco2)CC1,14.89
O=C(O)COc1ccc(Cl)cc1CN1CCC2(CCNCC2)CC1,18.91
Cc1ccc(Br)cc1C(=O)Nc1cc(C(N)=O)n(C)c1,5.637
CN(C)CC1CN(Cc2nnc(C(C)(C)C)o2)CCO1 (centres unmarked),-41.77
O=C1CCC(C(=O)N2CCOC(Cc3cccc4ccccc34)C2)=NN1 (centres unmarked),17.41